Data as given in PubChem BioAssay AID504791 (Drosophila RNAi Screening Center, 2011)

- Aim: 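Genes whose knock-down strengthens or weakens small-RNA reporter silencing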 (primary screen)
- System: Drosophila S2-derived reporter cells
- Knock-down reagent: long dsRNA against Drosophila genes, about 150-250 ng dsRNA per well (siRNA assay); about 80-120 ng (miRNA assay)
- Duration: about 5 days (siRNA assay); about 4 days (miRNA assay)
- Conditions: copper sulfate induction of reporters: 25 µM (siRNA assay); 200 mM stated (miRNA assay), 1-2 days before reading
- Measurement: 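Per-well ratio of Renilla over firefly light, expressed relative to that plate's average ratio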
- Active means: 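First-pass picks had plate-scaled ratios over 1.5 for the siRNA assay, over 1.6 for the miRNA assay, or under 0.6; two distinct dsRNAs had to score alike on retest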
The deposit covers about 23,000 reagents; below is a random part of those with a known target gene and a result. Over the whole deposit, 199 (0.86%) got an active call. 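Plate-scaled ratios behind the calls are not deposited; printed light signals are raw; many rows marked increased or decreased are still called inactive.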 Entries without a mark were called inactive. Names joined by + are all predicted targets of the reagent. Further read-outs or replicates are left out here. Not stated in the record: the direction of the score.

The opening 2 records, ahead of the listing:
| predicted target | PubChem SID | stable siRNA reporter change | miRNA reporter change | stable assay Renilla, run 1 (luminescence) |
| --- | --- | --- | --- | --- |
| Ids (Iduronate 2-sulfatase) | SID104188014 | – | – | 6432 |
| CG8001 | SID104188403 | – | – | 8306 |

Results, repeating the preview:
| predicted target | PubChem SID | stable siRNA reporter change | miRNA reporter change | stable assay Renilla, run 1 (luminescence) |
| --- | --- | --- | --- | --- |
| Ids (Iduronate 2-sulfatase) | SID104188014 | – | – | 6432 |
| CG8001 | SID104188403 | – | – | 8306 |
| CG32548 | SID104199419 | – | – | 5055 |
| CG32548 | SID104199774 | – | – | 8346 |
| CG31077 | SID104193597 | – | – | 8336 |
| Smn (survival motor neuron) | SID104190015 | – | – | 12087 |
| arx (asterix) | SID104190178 | reporter ratio raised past the hit cutoff | reporter ratio raised past the hit cutoff | 13734 |
| Df31 (Decondensation factor 31) | SID104183530 | – | – | 34562 |
| Df31 (Decondensation factor 31) | SID104201710 | – | – | 11028 |
| CG8138 | SID104196178 | – | – | 6863 |
| Tap42 (Two A-associated protein of 42kDa) | SID104182759 | – | – | 7180 |
| CG42562 | SID104186245 | – | – | 6570 |
| drl (derailed) | SID104183315 | – | – | 17094 |
| pAbp (poly(A) binding protein) | SID104187451 | – | reporter ratio lowered past the hit cutoff | 7079 |
| CG34404 | SID104195127 | – | – | 7819 |
| CG34404 | SID104195770 | – | – | 8323 |
| CG7080 | SID104195985 | – | – | 9583 |
| CG6937 + btn | SID104196709 | – | – | 6551 |
| dpr2 (defective proboscis extension response 2) | SID104182162 | – | – | 7386 |
| dpr2 (defective proboscis extension response 2) | SID104182163 | – | – | 7403 |
| CG13506 | SID104183942 | – | – | 6730 |
| Evi5 (Ecotropic viral integration site 5) | SID104199213 | – | – | 5724 |
| CG17568 | SID104182420 | – | – | 4976 |
| Ir56d (Ionotropic receptor 56d) | SID104186382 | – | – | 6931 |
| CG13857 | SID104194499 | – | – | 7338 |
| NK7.1 | SID104196547 | – | – | 7510 |
| ds (dachsous) | SID104180607 | – | – | 7823 |
| wac (wee Augmin) | SID104188141 | – | – | 6159 |
| CG13893 | SID104188155 | – | – | 6375 |
| CG14752 | SID104186280 | – | – | 6968 |
| Calr (Calreticulin) | SID104196406 | – | – | 6691 |
| CG12935 | SID104186040 | – | – | 8299 |
| CG15435 | SID104180242 | – | – | 8871 |
| Osi15 (Osiris 15) | SID104191970 | – | – | 5751 |
| Drp1 (Dynamin related protein 1) | SID104180366 | – | – | 11653 |
| CG8180 | SID104186884 | – | – | 11419 |
| CG8180 | SID104186885 | – | – | 4296 |
| CG7692 | SID104190694 | – | – | 7072 |
| CG6602 | SID104190465 | – | – | 7290 |
| CG10321 | SID104183853 | – | – | 4939 |
| ScpX | SID104183222 | – | – | 7018 |
| CG7730 | SID104190701 | – | – | 6954 |
| CG14450 | SID104191499 | – | – | 7074 |
| FarO (Fatty acyl-CoA reductase in oenocytes) | SID104198267 | – | – | 5507 |
| CG30324 | SID104202055 | – | – | 4467 |
| CG30380 | SID104184861 | – | – | 4943 |
| Dg (Dystroglycan) | SID104186510 | – | – | 6295 |
| Naa20B (N(alpha)-acetyltransferase 20 B) | SID104201185 | – | – | 10205 |
| CG4318 | SID104199679 | – | – | 4872 |
| SP2353 | SID104187337 | – | – | 5415 |
| pic (piccolo) | SID104196431 | – | – | 7204 |
| CG2104 | SID104192096 | – | – | 6423 |
| Cpr66Cb (Cuticular protein 66Cb) | SID104190561 | – | – | 6050 |
| GlcAT-P (Glucuronyltransferase P) | SID104190395 | – | – | 7726 |
| GlcAT-P (Glucuronyltransferase P) | SID104190396 | – | – | 6180 |
| osy (oskyddad) | SID104194695 | – | – | 6256 |
| osy (oskyddad) | SID104195771 | – | – | 7126 |
| osy (oskyddad) | SID104195773 | – | – | 7818 |
